Assay results published in patent US20240352100A1 (AJOU UNIVERSITY INDUSTRY ACADEMIC COOPERATION FOUNDATION, published 2024).
These are yes or no findings as the source states them, for the method shown.

Target: IL-4R
Assay: ELISA: antibody coated at 5 µg/ml, soluble IL-4R 1 µM as control antigen, A450

B1: inBC2 (antibody, V domains shown)
VH: QVQLVESGGGVVQPGRSLRLSCAASGFTFSSYPMHWVRQAPGKGLEWVAVVSYDGSYKYYADSVKGRLTISRDNSKNTLYLQMNSLRAEDTAVYYCARATVRGVTKIRGVFDSWGQGTLVTVSS
VL: DYQLTQSPSSLSASVGDRVTITCKSSQSLLNSRDGKNYLAWYQQKPGKAPKMLIYWASTRESGVPSRFSGSGSGTDFTLTISSLQPEDFATYFCQQYWYWMFTFGQGTKVEIKR
notes: Complete immunoglobulin; FR4 back-mutated form of inBC0; also called anti-β-catenin cytosol-penetrating interfering antibody inBC2; anti-β-catenin iMab
B1 was tested, and the binding was “no binding (tested: 1 µM)”.
